Data published in the supplement of paper PMC4604168 (melanoma cell lines).
Some of the results follow. Single values are uncertain, as repeats are few or missing.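 Imaging used 1,536-well plates; nuclei positive for cleaved PARP by antibody were divided by total DNA-stained nuclei to yield the apoptosis fraction. Doses for screening kept most cells viable, and cell lines differ markedly in resting and induced cleaved-PARP levels.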

Legend:
Assay in all cases: cleaved PARP positive nuclei fraction relative to DMSO control; melanoma cells; higher = more apoptosis
Settings in all cases: library dose: low library concentration; 72 h
[1] = tested on: MZ2-MEL
[2] = tested on: MeWo
[3] = tested on: RPMI7951
[4] = tested on: RVH-421
[5] = tested on: SkMel28
[6] = tested on: SkMel30
[7] = tested on: UACC62
[8] = tested on: WM115
[9] = tested on: WM1716
[10] = tested on: WM1745
[11] = tested on: WM3526
[12] = tested on: WM3619
[13] = tested on: WM451Lu
[14] = tested on: SkMel2
[15] = tested on: SkMel5
[16] = tested on: UACC257

SMILES | cleaved PARP positive nuclei fraction [1] [%] | cleaved PARP positive nuclei fraction [2] [%] | cleaved PARP positive nuclei fraction [3] [%] | cleaved PARP positive nuclei fraction [4] [%] | cleaved PARP positive nuclei fraction [5] [%] | cleaved PARP positive nuclei fraction [6] [%] | cleaved PARP positive nuclei fraction [7] [%] | cleaved PARP positive nuclei fraction [8] [%] | cleaved PARP positive nuclei fraction [9] [%] | cleaved PARP positive nuclei fraction [10] [%] | cleaved PARP positive nuclei fraction [11] [%] | cleaved PARP positive nuclei fraction [12] [%] | cleaved PARP positive nuclei fraction [13] [%] | cleaved PARP positive nuclei fraction [14] [%] | cleaved PARP positive nuclei fraction [15] [%] | cleaved PARP positive nuclei fraction [16] [%]
CN1CCN(c2ccc3nc(-c4c(N)c5c(F)cccc5[nH]c4=O)[nH]c3c2)CC1 [Dovitinib] + CO[C@H]1C[C@@H]2CC[C@@H](C)[C@@](O)(O2)C(=O)C(=O)N2CCCC[C@H]2C(=O)O[C@H]([C@H](C)C[C@@H]2CC[C@@H](OCCO)[C@H](OC)C2)CC(=O)[C@H](C)/C=C(\C)[C@@H](O)[C@@H](OC)C(=O)[C@H](C)C[C@H](C)/C=C/C=C/C=C/1C [everolimus] (first compound 0.1 µM, partner dose 0.02 µM) | 124 | 207 | 74.3 | 80 | 341 | 56.3 | 520 | 181 | 87.9 | 125 | 34 | 112 | 64.3 | – | – | –
Nc1ccn([C@@H]2O[C@H](CO)[C@@H](O)C2(F)F)c(=O)n1 [gemcitabine] + C#Cc1cccc(Nc2ncnc3cc(OCCOC)c(OCCOC)cc23)c1 [erlotinib] (first compound 0.0004 µM, partner dose 0.8 µM) | – | 41.6 | 121 | 72 | 154 | 33.5 | 291 | 81.3 | 94.8 | 138 | 35.3 | 114 | 176 | 86.1 | – | –
Cc1cc(Nc2cc(N3CCN(C)CC3)nc(/C=C/c3ccccc3)n2)n[nH]1 + CO[C@H]1C[C@@H]2CC[C@@H](C)[C@@](O)(O2)C(=O)C(=O)N2CCCC[C@H]2C(=O)O[C@H]([C@H](C)C[C@@H]2CC[C@@H](OCCO)[C@H](OC)C2)CC(=O)[C@H](C)/C=C(\C)[C@@H](O)[C@@H](OC)C(=O)[C@H](C)C[C@H](C)/C=C/C=C/C=C/1C [everolimus] (first compound 0.04 µM, partner dose 0.02 µM) | 104 | 99.5 | 85.3 | 112 | 508 | 124 | 257 | 94.6 | 238 | 95.8 | 60.6 | 232 | 151 | – | – | –
CC(C)C[C@H](NC(=O)[C@H](Cc1ccccc1)NC(=O)c1cnccn1)B(O)O [Bortezomib] + CO[C@H]1C[C@@H]2CC[C@@H](C)[C@@](O)(O2)C(=O)C(=O)N2CCCC[C@H]2C(=O)O[C@H]([C@H](C)C[C@@H]2CC[C@@H](OCCO)[C@H](OC)C2)CC(=O)[C@H](C)/C=C(\C)[C@@H](O)[C@@H](OC)C(=O)[C@H](C)C[C@H](C)/C=C/C=C/C=C/1C [everolimus] (first compound 0.001 µM, partner dose 0.02 µM) | 212 | 184 | 161 | 239 | 1000 | 72.2 | 725 | 205 | 687 | 211 | 62.5 | 244 | 255 | – | – | –
CO[C@H]1C[C@@H]2CC[C@@H](C)[C@@](O)(O2)C(=O)C(=O)N2CCCC[C@H]2C(=O)O[C@H]([C@H](C)C[C@@H]2CC[C@@H](OCCO)[C@H](OC)C2)CC(=O)[C@H](C)/C=C(\C)[C@@H](O)[C@@H](OC)C(=O)[C@H](C)C[C@H](C)/C=C/C=C/C=C/1C [everolimus] + COc1ccc(Cl)c(Nc2nc3ccccc3nc2NS(=O)(=O)c2cccc(NC(=O)C(C)(C)N)c2)c1 [XL147] (first compound 0.02 µM, partner dose 0.8 µM) | 79.6 | 462 | 109 | 97.2 | 160 | 21.3 | 448 | 52 | 123 | 93.7 | 98.1 | 107 | 62.1 | – | – | –
CS(=O)(=O)CCNCc1ccc(-c2ccc3ncnc(Nc4ccc(OCc5cccc(F)c5)c(Cl)c4)c3c2)o1 [lapatinib] + C[C@]1(c2nc3c(C(N)=O)cccc3[nH]2)CCCN1 [Veliparib] (first compound 0.8 µM, partner dose 1.4 µM) | – | 106 | 301 | 129 | 77.4 | 37.6 | 150 | 78.1 | 36.7 | 122 | 82.8 | 86.5 | 45.4 | – | – | –
Nc1ccn([C@@H]2O[C@H](CO)[C@@H](O)C2(F)F)c(=O)n1 [gemcitabine] + O=C(Nc1ccccc1)c1cc([N+](=O)[O-])ccc1Cl [GW9662] (first compound 0.0004 µM, partner dose 2 µM) | – | 33.6 | 91.3 | 76.6 | 26.8 | 136 | 105 | 111 | 34 | 116 | 90.1 | 129 | 62.8 | – | 78.1 | 153
C[C@@H](Oc1cc(-c2cnn(C3CCNCC3)c2)cnc1N)c1c(Cl)ccc(F)c1Cl [Crizotinib] + C=CCNC1=C2C[C@@H](C)C[C@H](OC)[C@H](O)[C@@H](C)/C=C(\C)[C@H](OC(N)=O)[C@@H](OC)/C=C\C=C(/C)C(=O)NC(=CC1=O)C2=O [Tanespimycin] (first compound 0.2 µM, partner dose 0.002 µM) | – | 65.5 | 95 | 167 | 154 | 48.3 | 60.4 | 80 | 35.9 | 94.3 | 137 | 102 | 44.3 | 93.2 | – | –
Nc1nc(F)nc2c1ncn2[C@@H]1O[C@H](CO)[C@@H](O)[C@@H]1O [fludarabine] + Cn1nnc2c(C(N)=O)ncn2c1=O [temozolomide] (first compound 0.2 µM, partner dose 2 µM) | – | 2200 | 160 | 199 | 147 | 1730 | 168 | 154 | 75.7 | 83.5 | 892 | 88.4 | 109 | – | – | –
CNC(=O)c1cc(Oc2ccc(NC(=O)Nc3ccc(Cl)c(C(F)(F)F)c3)cc2)ccn1 [sorafenib] + Nc1ccn([C@@H]2O[C@H](CO)[C@@H](O)C2(F)F)c(=O)n1 [gemcitabine] (first compound 0.4 µM, partner dose 0.0004 µM) | – | 56.2 | 45.3 | 37.8 | 149 | 67 | 120 | 189 | 66 | 99.2 | 82.5 | 111 | 76.8 | 85.8 | – | –
CO[C@H]1C[C@@H]2CC[C@@H](C)[C@@](O)(O2)C(=O)C(=O)N2CCCC[C@H]2C(=O)O[C@H]([C@H](C)C[C@@H]2CC[C@@H](OCCO)[C@H](OC)C2)CC(=O)[C@H](C)/C=C(\C)[C@@H](O)[C@@H](OC)C(=O)[C@H](C)C[C@H](C)/C=C/C=C/C=C/1C [everolimus] + CN(C)S(=O)(=O)c1ccc2c(c1)/C(=C/c1cc3c([nH]1)CCCC3)C(=O)N2 [SU6656] (first compound 0.02 µM, partner dose 0.4 µM) | – | 74.1 | 189 | 88.3 | 156 | 99.5 | 410 | 250 | 65.7 | 94.9 | 77.3 | 85.7 | 243 | – | 314 | 158
Cn1c(=O)n(-c2ccc(C(C)(C)C#N)cc2)c2c3cc(-c4cnc5ccccc5c4)ccc3ncc21 + CC(C)(C)c1cnc(CSc2cnc(NC(=O)C3CCNCC3)s2)o1 [SNS-032] (first compound 0.004 µM, partner dose 0.01 µM) | – | 79.2 | 137 | 32.7 | 227 | 66.6 | 114 | 293 | 59.7 | 90.9 | 132 | 97 | 49.9 | – | 63 | 81.4
CNC(=O)c1cc(Oc2ccc(NC(=O)Nc3ccc(Cl)c(C(F)(F)F)c3)cc2)ccn1 [sorafenib] + CC(C)CCN1c2nc(Nc3cc(F)c(O)c(F)c3)ncc2N(C)C(=O)C1C [BID1870] (first compound 0.4 µM, partner dose 0.2 µM) | – | 94 | 473 | 132 | 151 | 145 | 134 | 105 | 191 | 186 | 148 | 89.7 | 198 | – | 74.6 | 34.6
CCCS(=O)(=O)Nc1ccc(F)c(C(=O)c2c[nH]c3ncc(Cl)cc23)c1F + OCc1c[nH]c2ccccc12 [Indole-3-carbinol] (first compound 0.08 µM, partner dose 0.8 µM) | – | 66.1 | 44.1 | 83.3 | 164 | 91.5 | 170 | 92.2 | 30.7 | 88 | 86 | 108 | 177 | 94.5 | – | –
Nc1nc(F)nc2c1ncn2[C@@H]1O[C@H](CO)[C@@H](O)[C@@H]1O [fludarabine] + O=S(=O)(c1ccccc1)N(CC(F)(F)F)c1ccc(C(O)(C(F)(F)F)C(F)(F)F)cc1 [T0901317] (first compound 0.2 µM, partner dose 1.4 µM) | – | 321 | 74 | 117 | 187 | 518 | 61.7 | 170 | 101 | 94.6 | 1550 | 89.7 | 625 | – | 119 | 170
Nc1ccn([C@@H]2O[C@H](CO)[C@@H](O)C2(F)F)c(=O)n1 [gemcitabine] + O=C(CCCCCCC(=O)Nc1ccccc1)NO [vorinostat] (first compound 0.0004 µM, partner dose 0.08 µM) | – | 48.3 | 195 | 35 | 99.1 | 54.9 | 65.8 | 26.2 | 167 | 147 | 54.7 | 155 | 68.5 | – | 136 | 27.3

An excerpt of these results, comma-delimited.
SMILES,cleaved PARP positive nuclei fraction [1] [%],cleaved PARP positive nuclei fraction [2] [%],cleaved PARP positive nuclei fraction [3] [%],cleaved PARP positive nuclei fraction [4] [%],cleaved PARP positive nuclei fraction [5] [%],cleaved PARP positive nuclei fraction [6] [%],cleaved PARP positive nuclei fraction [7] [%],cleaved PARP positive nuclei fraction [8] [%],cleaved PARP positive nuclei fraction [9] [%],cleaved PARP positive nuclei fraction [10] [%],cleaved PARP positive nuclei fraction [11] [%],cleaved PARP positive nuclei fraction [12] [%],cleaved PARP positive nuclei fraction [13] [%],cleaved PARP positive nuclei fraction [14] [%],cleaved PARP positive nuclei fraction [15] [%],cleaved PARP positive nuclei fraction [16] [%]
"CNC(=O)c1cc(Oc2ccc(NC(=O)Nc3ccc(Cl)c(C(F)(F)F)c3)cc2)ccn1 [sorafenib] + Nc1ccn([C@@H]2O[C@H](CO)[C@@H](O)C2(F)F)c(=O)n1 [gemcitabine] (first compound 0.4 µM, partner dose 0.0004 µM)",–,56.2,45.3,37.8,149,67,120,189,66,99.2,82.5,111,76.8,85.8,–,–
"CO[C@H]1C[C@@H]2CC[C@@H](C)[C@@](O)(O2)C(=O)C(=O)N2CCCC[C@H]2C(=O)O[C@H]([C@H](C)C[C@@H]2CC[C@@H](OCCO)[C@H](OC)C2)CC(=O)[C@H](C)/C=C(\C)[C@@H](O)[C@@H](OC)C(=O)[C@H](C)C[C@H](C)/C=C/C=C/C=C/1C [everolimus] + CN(C)S(=O)(=O)c1ccc2c(c1)/C(=C/c1cc3c([nH]1)CCCC3)C(=O)N2 [SU6656] (first compound 0.02 µM, partner dose 0.4 µM)",–,74.1,189,88.3,156,99.5,410,250,65.7,94.9,77.3,85.7,243,–,314,158
